PubChem BioAssay AID504808, Drosophila RNAi Screening Center, 2011
Assay: 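Chromatin factors that keep E2F targets switched off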 (primary screen). Cells: Drosophila S2 cells. Knock-down reagent: long dsRNA against Drosophila genes. Detection: 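Firefly luciferase driven by E2F sites, normalised to Renilla luciferase on the same minimal promoter, measured by plate reader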. Direction: E2F firefly: higher = more E2F reporter activity; Renilla normaliser: higher = more normaliser reporter signal. Active means: 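Called active if the normalised E2F reporter went up by over 50%; the cutoff is arbitrary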.
In all, the deposit lists about 21,000 reagents; shown is an unselected part of those that have a named target and a result. In the full data, 18 (0.084%) are marked active. 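Raw counts without plate normalisation, one of two replicates; the ratio scores behind the calls were not deposited.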 Names joined by + are all predicted targets of the reagent. The record does not give: the amount of reagent, the time to read-out.

gene	amplicon	E2F firefly, rep 1	Renilla normaliser, rep 1	call
l(2)05714 (lethal (2) 05714)	DRSC03118	1.00e5	3933	inactive
Pld3 (Phospholipase D family member 3)	DRSC03167	77882	3406	inactive
Ser6 (Serine protease 6)	DRSC20574	1.36e5	7083	inactive
CG32052	DRSC10966	1.02e5	5960	inactive
CG7907	DRSC16339	1.51e5	7741	inactive
wcy (wacky)	DRSC20132	1.53e5	5699	inactive
nebu (nebulosa)	DRSC09807	69059	3524	inactive
nebu (nebulosa)	DRSC09808	1.49e5	7814	inactive
htk (hat-trick)	DRSC20029	1.05e5	5148	inactive
htk (hat-trick)	DRSC20031	1.52e5	5465	inactive
CG12491 + CG34105	DRSC04008	1.50e5	5428	inactive
CG12491 + CG34105	DRSC04124	1.12e5	4396	inactive
CG11630	DRSC03696	98413	3834	inactive
Herp (Homocysteine-induced endoplasmic reticulum protein)	DRSC02394	87989	4265	inactive
CG14853	DRSC14977	1.08e5	5258	inactive
trus (toys are us)	DRSC15772	1.51e5	7632	inactive
Mst89B	DRSC16748	1.19e5	6278	inactive
CG6878	DRSC10737	1.43e5	8340	inactive
CG34183	DRSC01099	1.38e5	6630	inactive
CG31082 (retired record)	DRSC13775	77218	2603	inactive
CG4278	DRSC02741	74153	3289	inactive
CG33136	DRSC05744	1.50e5	4995	inactive
Npc2g (Niemann-Pick type C-2g)	DRSC14296	1.33e5	5994	inactive
RPA1 (Replication protein A1)	DRSC16830	63553	3509	inactive
CG31551	DRSC12159	59220	3488	inactive
CG32750	DRSC18848	1.10e5	5013	inactive
CG9825	DRSC04569	1.08e5	4846	inactive
Ggamma1 (G protein gamma subunit 1)	DRSC07435	2608	219	inactive
CG6171	DRSC15982	87535	3687	inactive
CycY (Cyclin Y)	DRSC02420	75440	3936	inactive
ppk6 (pickpocket 6)	DRSC06062	1.29e5	5023	inactive
Hmx (H6-like-homeobox)	DRSC15884	1.11e5	5456	inactive
Hmx (H6-like-homeobox)	DRSC16706	94734	4460	inactive
CG7611	DRSC11840	85901	3941	inactive
teq (Tequila)	DRSC10298	89605	4215	inactive
teq (Tequila)	DRSC11301	89227	3697	inactive
teq (Tequila)	DRSC11302	84043	3669	inactive
CG3092	DRSC04336	74521	3281	inactive
CG42240	DRSC18097	7274	652	inactive
CG4661	DRSC19910	1.50e5	7285	inactive

Next part (4 carried over from the part before).
gene	amplicon	E2F firefly, rep 1	Renilla normaliser, rep 1	call
teq (Tequila)	DRSC11302	84043	3669	inactive
CG3092	DRSC04336	74521	3281	inactive
CG42240	DRSC18097	7274	652	inactive
CG4661	DRSC19910	1.50e5	7285	inactive
Femcoat	DRSC18061	1.10e5	5875	inactive
LBR (Lamin B receptor)	DRSC04298	91922	3281	inactive
LpR1 (Lipophorin receptor 1)	DRSC15665	1732	1036	inactive
LpR1 (Lipophorin receptor 1)	DRSC15669	1.22e5	6269	inactive
LpR1 (Lipophorin receptor 1)	DRSC15670	1.19e5	6126	inactive
Rubicon	DRSC17889	95497	5120	inactive
CG15358	DRSC00388	1.67e5	6030	inactive
Roc2 (Regulator of cullins 2)	DRSC07313	93980	3788	inactive
barc (barricade)	DRSC11792	75066	3464	inactive
Gug (Grunge)	DRSC11179	84483	3671	inactive
whd (withered)	DRSC07351	3255	278	inactive
CG4041	DRSC18339	1.05e5	5930	inactive
Mur18B (Mucin related 18B)	DRSC20063	1.52e5	5499	inactive
Ran-like	DRSC10918	67024	3166	inactive
CG14566	DRSC11727	1.33e5	6564	inactive
nis	DRSC00290	86390	4193	inactive
Sps2 (Selenophosphate synthetase 2)	DRSC03441	1.47e5	4676	inactive
Nop17l (Nop17 like)	DRSC06556	2901	175	inactive
CG32246	DRSC08115	1.23e5	4040	inactive
OstDelta (Oligosaccharide transferase Delta subunit)	DRSC06980	63506	3754	inactive
beat-Ib (beaten path Ib)	DRSC03490	97532	4416	inactive
Clic (Chloride intracellular channel)	DRSC19364	8168	848	inactive
PolD1 (DNA polymerase delta subunit 1)	DRSC11138	1.49e5	6655	inactive
Notum	DRSC09959	1.65e5	9621	inactive
CG7668	DRSC10901	81194	3107	inactive
4E-T (eIF4E-Transporter)	DRSC17201	1680	988	inactive
4E-T (eIF4E-Transporter)	DRSC17208	1.04e5	5866	inactive
CG3294	DRSC00590	95622	3800	inactive
Pgd (Phosphogluconate dehydrogenase)	DRSC18697	1594	996	inactive
smal (smoke alarm)	DRSC02318	1.58e5	5610	inactive
smal (smoke alarm)	DRSC02319	1.51e5	5318	inactive
smal (smoke alarm)	DRSC02320	1.51e5	5011	inactive
smal (smoke alarm)	DRSC02504	1.41e5	5267	inactive
Cht12 (Chitinase 12)	DRSC03844	1.12e5	4367	inactive
pic (piccolo)	DRSC16639	72968	4269	inactive
Ufsp1 (UFM1 specific peptidase 1)	DRSC04958	1.33e5	5149	inactive
Es2	DRSC18663	7707	748	inactive
CG18558	DRSC00525	1.61e5	5415	inactive
gammaTub37C (gamma-Tubulin at 37C)	DRSC03535	80093	3971	inactive
ClpX (Caseinolytic protease chaperone subunit)	DRSC15592	75753	5538	inactive
TyrRS (Tyrosyl-tRNA synthetase)	DRSC10430	78158	3487	inactive
CG7298	DRSC10802	68213	3883	inactive
CG4408	DRSC15574	69463	2497	inactive
sNPF (short neuropeptide F precursor)	DRSC02309	99176	4323	inactive
